PubChem BioAssay AID652259, Drosophila RNAi Screening Center – 2013

Assay: 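Identify new Wingless signalling regulators in fly cells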 (primary screen)
Cell system: Drosophila clone 8 imaginal disc epithelial cells
Reagent: long dsRNA against Drosophila genes
Treatment: pathway stimulated by co-transfected Wingless expression plasmid
Measured: 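Firefly luciferase from a tcf-site Wingless reporter, measured alongside co-transfected Renilla luciferase that tracks transfection; pathway stimulated by a Wingless plasmid; the firefly-to-Renilla ratio is not deposited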
Reading the numbers: firefly reporter light: higher = more Wg reporter light, before normalisation; Renilla control light: higher = more transfected or surviving cells
Hit rule: 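a knock-down is a candidate when at least two out of four statistical tests show it departing from its plate mean; one test alone signals a weak candidate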
Meaning of the calls: active = candidate regulator (raises or lowers reporter); inactive = not a candidate
In all, the deposit lists about 22,000 reagents; this is a random part of those with a known target gene and a result. Over the whole deposit, 233 (1.1%) were called active. 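Light values are raw, unnormalised plate reads; the ratio scores behind the reporter calls were not deposited.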 Unmarked entries are inactive. The record does not give: the amount of reagent, the time to read-out, the dose of the treatment.

With CG43691 (GeneID 14462585) [DRSC06650], what does the deposit list?
firefly reporter light, replicate 1: 6440; Renilla control light, replicate 1: 3248

For CG43691 (GeneID 14462585) [DRSC06651], how do the results read?
firefly reporter light, replicate 1: 5665; Renilla control light, replicate 1: 2483

Which result is listed for CG7646 (GeneID 40187) [DRSC11232]?
firefly reporter light, replicate 1: 22212; Renilla control light, replicate 1: 3978

What is on record for Coa8 (GeneID 31148) [DRSC17959]?
firefly reporter light, replicate 1: 18929; Renilla control light, replicate 1: 13984

How did the screen score l(3)87Df (GeneID 49762) [DRSC16982]?
firefly reporter light, replicate 1: 17076; Renilla control light, replicate 1: 4279

How did the screen score GstE10 (GeneID 37105) [DRSC06671]?
firefly reporter light, replicate 1: 5625; Renilla control light, replicate 1: 2310

How did the screen score CG1648 (GeneID 36009) [DRSC06610]?
firefly reporter light, replicate 1: 17866; Renilla control light, replicate 1: 5914

Which result is listed for CG17002 (GeneID 35610) [DRSC04978]?
firefly reporter light, replicate 1: 6553; Renilla control light, replicate 1: 2624

Which result is listed for pyd3 (GeneID 40916) [DRSC15459]?
firefly reporter light, replicate 1: 6598; Renilla control light, replicate 1: 2064

For pyd3 (GeneID 40916) [DRSC21640], what was measured?
firefly reporter light, replicate 1: 3.87e5; firefly reporter light, replicate 2: 4.48e5; Renilla control light, replicate 1: 2.12e5; Renilla control light, replicate 2: 1.54e5

What is on record for CG31233 (GeneID 42557) [DRSC15888]?
firefly reporter light, replicate 1: 35952; Renilla control light, replicate 1: 5504

For NimA (GeneID 318930) [DRSC01353], what was measured?
firefly reporter light, replicate 1: 12965; Renilla control light, replicate 1: 7395

How did the screen score NimA (GeneID 318930) [DRSC22170]?
firefly reporter light, replicate 1: 7.39e5; firefly reporter light, replicate 2: 7.81e5; Renilla control light, replicate 1: 3.07e5; Renilla control light, replicate 2: 2.85e5

Which result is listed for Vha100-4 (GeneID 42214) [DRSC16282]?
firefly reporter light, replicate 1: 14005; Renilla control light, replicate 1: 2770

What is on record for CG3117 (GeneID 33484) [DRSC00568]?
firefly reporter light, replicate 1: 1894; firefly reporter light, replicate 2: 8161; Renilla control light, replicate 1: 935; Renilla control light, replicate 2: 2640

What did the screen give for CG33635 (GeneID 3772540) [DRSC00006]?
firefly reporter light, replicate 1: 28093; Renilla control light, replicate 1: 15780

Laid out differently: entries from further up.
{"gene": "NimA (GeneID 318930)", "amplicon": "DRSC22170", "firefly reporter light, replicate 1": 7.39e5, "firefly reporter light, replicate 2": 7.81e5, "Renilla control light, replicate 1": 3.07e5, "Renilla control light, replicate 2": 2.85e5}
{"gene": "Vha100-4 (GeneID 42214)", "amplicon": "DRSC16282", "firefly reporter light, replicate 1": 14005, "Renilla control light, replicate 1": 2770}
{"gene": "CG3117 (GeneID 33484)", "amplicon": "DRSC00568", "firefly reporter light, replicate 1": 1894, "firefly reporter light, replicate 2": 8161, "Renilla control light, replicate 1": 935, "Renilla control light, replicate 2": 2640}
{"gene": "CG33635 (GeneID 3772540)", "amplicon": "DRSC00006", "firefly reporter light, replicate 1": 28093, "Renilla control light, replicate 1": 15780}

Additional records follow:
With Mer (GeneID 32979) [DRSC20259], what does the deposit list?
firefly reporter light, replicate 1: 3168; firefly reporter light, replicate 2: 9520; Renilla control light, replicate 1: 889; Renilla control light, replicate 2: 2312

With CG3306 (GeneID 39116) [DRSC10357], what was measured?
firefly reporter light, replicate 1: 2620; Renilla control light, replicate 1: 1173

With CG31664 (GeneID 33359) [DRSC22084], what does the deposit list?
firefly reporter light, replicate 1: 3.99e5; firefly reporter light, replicate 2: 4.57e5; Renilla control light, replicate 1: 1.59e5; Renilla control light, replicate 2: 1.68e5

What is on record for CG16879 (retired record) (GeneID 34827) [DRSC01918]?
firefly reporter light, replicate 1: 4490; firefly reporter light, replicate 2: 12435; Renilla control light, replicate 1: 2243; Renilla control light, replicate 2: 7024

With CG16879 (retired record) (GeneID 34827) [DRSC22849], what was measured?
firefly reporter light, replicate 1: 6.11e5; firefly reporter light, replicate 2: 6.56e5; Renilla control light, replicate 1: 2.10e5; Renilla control light, replicate 2: 2.18e5

For CG15498 (GeneID 42548) [DRSC15040], what was measured?
firefly reporter light, replicate 1: 33393; Renilla control light, replicate 1: 7096

Which result is listed for CG7519 (GeneID 40377) [DRSC11834]?
firefly reporter light, replicate 1: 14128; Renilla control light, replicate 1: 4154

With sicily (GeneID 32151) [DRSC19704], what does the deposit list?
firefly reporter light, replicate 1: 13626; Renilla control light, replicate 1: 8336

With SmB (GeneID 34426) [DRSC03437], what does the deposit list?
firefly reporter light, replicate 1: 11482; Renilla control light, replicate 1: 1690
